Laboratory results: PubChem BioAssay AID493246 (Drosophila RNAi Screening Center, 2011)
Screen: 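Genome-wide search for dsRNAs that reduce cell number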 (primary screen). Cell system: Drosophila Kc and S2R+ cells. Reagents: long dsRNA against Drosophila genes. Measurement: 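Raw, unnormalised count of remaining cells in each well; per-plate z-scores of cell number underlie the calls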. Reading the numbers: Kc cell number and S2R+ cell number: higher = more cells remaining. Hit rule: 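Counted as a hit if cell number falls by a z-score of at least 3 within its plate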.
In all, the deposit lists about 21,000 reagents; this is a random part of those that have a named target and a result. Over the whole deposit, 429 (2%) got an active call. 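Values are raw and not normalised between plates; calls rest on per-plate z-scores that were not deposited.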 Entries without a mark were called inactive. Reagent sequences are not shown. Not stated in the record: the amount of reagent, the time to read-out.

Elba2 [DRSC00731] gave Kc cell number, rep 1 = 1.28e6; Kc cell number, rep 2 = 1.36e6; S2R+ cell number, rep 1 = 8.76e5; S2R+ cell number, rep 2 = 8.56e5. Silencing of Ets21C [DRSC00751] came out at: Kc cell number, rep 1 = 1.55e6; Kc cell number, rep 2 = 1.62e6; S2R+ cell number, rep 1 = 1.12e6; S2R+ cell number, rep 2 = 1.22e6. With knock-down of CG7631 [DRSC01873], the screen gave Kc cell number, rep 1 = 1.52e6; Kc cell number, rep 2 = 1.64e6; S2R+ cell number, rep 1 = 1.21e6; S2R+ cell number, rep 2 = 1.36e6. Ugt303B2 [DRSC14198] showed Kc cell number, rep 1 = 1.48e6; Kc cell number, rep 2 = 1.60e6; S2R+ cell number, rep 1 = 1.06e6; S2R+ cell number, rep 2 = 1.38e6. Silencing of CG11141 [DRSC06048] came out at: Kc cell number, rep 1 = 1.26e6; Kc cell number, rep 2 = 1.55e6; S2R+ cell number, rep 1 = 8.92e5; S2R+ cell number, rep 2 = 9.65e5. Against Ir11a [DRSC19699] the deposit lists Kc cell number, rep 1 = 1.77e6; Kc cell number, rep 2 = 1.60e6; S2R+ cell number, rep 1 = 1.13e6; S2R+ cell number, rep 2 = 1.20e6.

CG7745 [DRSC07037] showed Kc cell number, rep 1 = 9.97e5 (active); Kc cell number, rep 2 = 1.12e6; S2R+ cell number, rep 1 = 3.80e5; S2R+ cell number, rep 2 = 4.62e5. For DNAlig1 [DRSC04518], the values are Kc cell number, rep 1 = 1.18e6; Kc cell number, rep 2 = 1.30e6; S2R+ cell number, rep 1 = 9.19e5; S2R+ cell number, rep 2 = 9.27e5.

2 entries from above, set out differently.
Ir11a [DRSC19699]
- Kc cell number, rep 1: 1.77e6
- Kc cell number, rep 2: 1.60e6
- S2R+ cell number, rep 1: 1.13e6
- S2R+ cell number, rep 2: 1.20e6

CG7745 [DRSC07037]
- Kc cell number, rep 1: 9.97e5 (active)
- Kc cell number, rep 2: 1.12e6
- S2R+ cell number, rep 1: 3.80e5
- S2R+ cell number, rep 2: 4.62e5

More entries follow:
Silencing of spn-F [DRSC14475] resulted in: Kc cell number, rep 1 = 4.11e5; S2R+ cell number, rep 1 = 6.54e5. With knock-down of Ser8 [DRSC06891] the results were Kc cell number, rep 1 = 1.40e6; Kc cell number, rep 2 = 1.46e6; S2R+ cell number, rep 1 = 1.21e6; S2R+ cell number, rep 2 = 1.32e6. Knock-down of CG34263 [DRSC07866] gave: Kc cell number, rep 1 = 1.50e6; Kc cell number, rep 2 = 1.43e6; S2R+ cell number, rep 1 = 1.03e6; S2R+ cell number, rep 2 = 1.19e6. After knock-down of niki [DRSC14285], the screen gave Kc cell number, rep 1 = 1.68e6; Kc cell number, rep 2 = 1.57e6; S2R+ cell number, rep 1 = 9.83e5; S2R+ cell number, rep 2 = 1.11e6. For CG7381 [DRSC16238], the entry reads Kc cell number, rep 1 = 1.54e6; Kc cell number, rep 2 = 1.62e6; S2R+ cell number, rep 1 = 1.35e6; S2R+ cell number, rep 2 = 1.43e6. With knock-down of CG40551 (retired record) [DRSC21229], the record shows Kc cell number, rep 1 = 1.30e6; Kc cell number, rep 2 = 1.36e6; S2R+ cell number, rep 1 = 1.06e6; S2R+ cell number, rep 2 = 1.16e6.

Silencing of CG17472 [DRSC02622] came out at: Kc cell number, rep 1 = 1.62e6; Kc cell number, rep 2 = 1.76e6; S2R+ cell number, rep 1 = 1.35e6; S2R+ cell number, rep 2 = 2.92e5. Silencing of Nipped-A [DRSC04882] came out at: Kc cell number, rep 1 = 1.54e6; Kc cell number, rep 2 = 1.60e6; S2R+ cell number, rep 1 = 1.06e6; S2R+ cell number, rep 2 = 1.17e6. Against Nipped-A [DRSC04883], the entry reads Kc cell number, rep 1 = 1.44e6; Kc cell number, rep 2 = 1.59e6; S2R+ cell number, rep 1 = 1.28e6; S2R+ cell number, rep 2 = 1.48e6. Nipped-A [DRSC04884] gave Kc cell number, rep 1 = 1.49e6; Kc cell number, rep 2 = 1.48e6; S2R+ cell number, rep 1 = 1.11e6; S2R+ cell number, rep 2 = 1.19e6. For Nipped-A [DRSC07738], the values are Kc cell number, rep 1 = 1.39e6; Kc cell number, rep 2 = 1.28e6; S2R+ cell number, rep 1 = 9.44e5; S2R+ cell number, rep 2 = 1.10e6. With knock-down of CG10822 [DRSC06005], the screen gave Kc cell number, rep 1 = 1.52e6; Kc cell number, rep 2 = 1.58e6; S2R+ cell number, rep 1 = 1.13e6; S2R+ cell number, rep 2 = 1.30e6.

With knock-down of mIF3 [DRSC06290] the results were Kc cell number, rep 1 = 1.51e6; Kc cell number, rep 2 = 1.52e6; S2R+ cell number, rep 1 = 1.16e6; S2R+ cell number, rep 2 = 1.31e6.
